# Paper PMC8811898, “Structural Insights into Methylated DNA Recognition by the Methyl-CpG Binding Domain of MBD6 from Arabidopsis thaliana”
# For at least one entry, the source does not settle the construct or the ends of the probe. At least one verdict was read from the data and is not stated in words by the source. Where a protein sequence is shown, tags need not be part of it.
# Target: T1, AtMBD6 MBD domain WT (Arabidopsis thaliana) (UniProt Q9LTJ1)
# T1 sequence (looked up): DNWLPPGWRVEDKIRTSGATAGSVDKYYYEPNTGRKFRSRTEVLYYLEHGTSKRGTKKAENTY
# Assay: EMSA
# Details: 20 uM protein, 4 uM DNA; 5-methylcytosine at position 7 of both strands (symmetric methyl-CpG); EMSA: 25 mM Tris, 25 mM boric acid, 150 mM NaCl, 5% glycerol, 1 mM DTT, 4 C, 30 min; recombinant protein; residues 78-140; protein details: GST removed by HRV3C, N-terminal GPLGS remains
sequence,measurement,value
GGTATGCGCATACC (double strand) [MG],binding result,binds
